In PMC5937737:
Results are given in words; binding and its absence hold for the method and conditions named. In cells and extracts the contact can be indirect. Some binding calls cover weakened binding; strength is not graded here.

Amino acid sequences for entries named in this document (tags omitted). A change or cut given only in a name is not applied to a line headed by its entry. Residues count along the entry.
UniProt P60953: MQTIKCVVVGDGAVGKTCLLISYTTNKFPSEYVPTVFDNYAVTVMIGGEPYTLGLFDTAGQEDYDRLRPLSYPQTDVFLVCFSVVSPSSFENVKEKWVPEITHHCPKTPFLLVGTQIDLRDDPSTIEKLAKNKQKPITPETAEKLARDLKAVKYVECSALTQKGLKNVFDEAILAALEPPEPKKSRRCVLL
UniProt Q13153: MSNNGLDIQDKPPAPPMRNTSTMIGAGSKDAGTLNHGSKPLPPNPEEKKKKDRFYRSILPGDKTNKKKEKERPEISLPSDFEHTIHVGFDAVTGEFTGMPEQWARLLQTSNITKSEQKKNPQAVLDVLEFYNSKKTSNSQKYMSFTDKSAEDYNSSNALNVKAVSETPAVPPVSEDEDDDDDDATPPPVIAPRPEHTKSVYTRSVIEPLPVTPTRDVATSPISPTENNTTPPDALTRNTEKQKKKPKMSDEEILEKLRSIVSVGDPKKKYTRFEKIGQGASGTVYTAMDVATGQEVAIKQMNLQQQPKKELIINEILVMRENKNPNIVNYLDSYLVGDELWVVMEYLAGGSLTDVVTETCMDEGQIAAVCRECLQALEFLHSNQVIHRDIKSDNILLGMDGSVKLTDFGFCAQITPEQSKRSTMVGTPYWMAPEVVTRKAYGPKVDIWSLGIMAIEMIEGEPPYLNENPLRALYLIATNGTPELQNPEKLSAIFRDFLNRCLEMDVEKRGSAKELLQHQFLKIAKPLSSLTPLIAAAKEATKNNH
GST-PAK[CRIB]: residues 58-141 of Q13153
UniProt O96013: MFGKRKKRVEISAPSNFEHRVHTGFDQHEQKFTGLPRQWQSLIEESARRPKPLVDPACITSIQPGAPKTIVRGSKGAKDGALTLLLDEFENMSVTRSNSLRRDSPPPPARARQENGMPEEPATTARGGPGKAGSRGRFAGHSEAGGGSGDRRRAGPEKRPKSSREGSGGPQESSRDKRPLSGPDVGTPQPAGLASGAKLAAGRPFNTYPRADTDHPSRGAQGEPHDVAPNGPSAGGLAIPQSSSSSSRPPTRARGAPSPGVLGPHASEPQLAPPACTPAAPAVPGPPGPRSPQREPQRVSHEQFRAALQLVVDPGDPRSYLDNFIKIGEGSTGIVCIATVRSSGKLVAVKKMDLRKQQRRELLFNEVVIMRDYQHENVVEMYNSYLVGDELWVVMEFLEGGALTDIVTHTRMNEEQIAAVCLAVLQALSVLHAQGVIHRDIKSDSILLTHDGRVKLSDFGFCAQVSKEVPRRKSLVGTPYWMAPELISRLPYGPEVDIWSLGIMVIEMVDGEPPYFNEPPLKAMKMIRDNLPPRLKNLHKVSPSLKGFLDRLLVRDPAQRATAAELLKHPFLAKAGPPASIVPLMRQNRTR
UniProt P61586: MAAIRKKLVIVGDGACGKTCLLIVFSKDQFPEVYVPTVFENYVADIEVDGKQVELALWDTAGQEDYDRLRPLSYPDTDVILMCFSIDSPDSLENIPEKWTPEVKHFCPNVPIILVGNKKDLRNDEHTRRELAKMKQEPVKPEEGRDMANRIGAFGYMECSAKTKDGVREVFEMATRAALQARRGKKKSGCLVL
UniProt P42336, residues 127-314: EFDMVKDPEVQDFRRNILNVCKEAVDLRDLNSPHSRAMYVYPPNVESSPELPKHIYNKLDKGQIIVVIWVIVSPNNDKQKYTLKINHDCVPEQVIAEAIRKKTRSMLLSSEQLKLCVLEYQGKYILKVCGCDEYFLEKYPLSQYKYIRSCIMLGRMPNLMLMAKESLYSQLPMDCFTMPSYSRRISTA
UniProt Q9P212, residues 2130-2240: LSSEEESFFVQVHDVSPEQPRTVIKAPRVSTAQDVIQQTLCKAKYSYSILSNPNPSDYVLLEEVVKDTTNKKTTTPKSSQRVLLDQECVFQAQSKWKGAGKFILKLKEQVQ

Key:
[1] = target: endogenous CDC42 (Flp-In 293) (human (endogenous in Flp-In 293)) (UniProt P60953); assay: co-IP; anti-PAK1 or anti-CDC42 antibody on magnetic Dynabeads Protein G; mRIPA buffer (50 mM HEPES pH 7.5, 150 mM NaCl, 1% Nonidet P40, 0.5% sodium deoxycholate, 0.05% SDS, 1 mM EDTA); HEK293T (transient, 10% serum; S3B, S5A Figs) or Flp-In 293 (stable; S6D Fig) lysates; anti-HA immunoblot
GST-PAK[CRIB] = GST-PAK[CRIB] (UniProt Q13153); assay: pull-down; GST-RBD/RA/CRIB fusion proteins on beads precipitate HA-RIT1 from HEK293T cell extracts; cells in 0.1% serum, 10% serum, or 0.1% serum then 10 ng/ml EGF for 20 min; anti-HA immunoblot; only the target purified
GFP-PAK4 = GFP-PAK4 (UniProt O96013); assay: co-IP; ectopically expressed MYC-, GFP- or EGFP-tagged bait precipitated from HEK293T lysates (0.1% serum) with anti-MYC beads, GFP trap or primary anti-CDC42/anti-RAC1 antibodies; immunoblot
MYC-CDC42 = MYC-CDC42 (UniProt P60953); assay: as above
EGFP-RHOA = EGFP-RHOA (UniProt P61586); assay: as above
[2] = target: endogenous PAK1 (HEK293T) (human (endogenous in HEK293T)) (UniProt Q13153); assay: co-IP; endogenous PAK1, CDC42 or RAC1 immunoprecipitated (Protein A agarose or Protein G sepharose) from lysates of transfected HEK293T cells, 0.1% or 10% serum; 150 mM NaCl, 50 mM HEPES pH 7.5, 0.2% Nonidet P40 (S5B Fig: 50 mM Tris-HCl pH 8, 120 mM NaCl, 1 mM EDTA, 0.5% Nonidet P40); co-precipitated HA-RIT1 detected by anti-HA immunoblot
[3] = target: endogenous CDC42 (HEK293T) (human (endogenous in HEK293T)) (UniProt P60953); assay: as above
[4] = target: endogenous CDC42 (HEK293T) (human (endogenous in HEK293T)) (UniProt P60953); assay: co-IP; anti-PAK1 or anti-CDC42 antibody on magnetic Dynabeads Protein G; mRIPA buffer (50 mM HEPES pH 7.5, 150 mM NaCl, 1% Nonidet P40, 0.5% sodium deoxycholate, 0.05% SDS, 1 mM EDTA); HEK293T (transient, 10% serum; S3B, S5A Figs) or Flp-In 293 (stable; S6D Fig) lysates; anti-HA immunoblot
GST-PIK3CA[RBD] = GST-PIK3CA[RBD] (UniProt P42336); assay: pull-down; GST-RBD/RA/CRIB fusion proteins on beads precipitate HA-RIT1 from HEK293T cell extracts; cells in 0.1% serum, 10% serum, or 0.1% serum then 10 ng/ml EGF for 20 min; anti-HA immunoblot; only the target purified
GST-PLCE1[RA] = GST-PLCE1[RA] (UniProt Q9P212); assay: as above
[5] = target: endogenous PAK1 (HEK293T) (human (endogenous in HEK293T)) (UniProt Q13153); assay: co-IP; anti-PAK1 or anti-CDC42 antibody on magnetic Dynabeads Protein G; mRIPA buffer (50 mM HEPES pH 7.5, 150 mM NaCl, 1% Nonidet P40, 0.5% sodium deoxycholate, 0.05% SDS, 1 mM EDTA); HEK293T (transient, 10% serum; S3B, S5A Figs) or Flp-In 293 (stable; S6D Fig) lysates; anti-HA immunoblot

For “HA-tagged RIT1 p.G31R (Flp-In 293 stable cell line) (from UniProt Q92963-1 1-219)”, the binding [1] was “binds”.
For “HA-RIT1 p.G95A (from UniProt Q92963-1 1-219)”, the binding (GST-PAK[CRIB]) was “binds”, the binding (GFP-PAK4) was “no binding” and the binding (MYC-CDC42) was “binds”. For the same substance, the binding (EGFP-RHOA) was “no binding”, the binding [2] was “binds” and the binding [3] was “binds”. The binding [4] was “binds”.
In the case of “HA-RIT1 wildtype (from UniProt Q92963-1 1-219)”, the binding (GST-PIK3CA[RBD]) is reported as “binds”, the binding (GST-PLCE1[RA]) is reported as “binds” and the binding (GST-PAK[CRIB]) is reported as “binds”. The binding (GFP-PAK4) was “no binding”, the binding (MYC-CDC42) was “binds” and the binding (EGFP-RHOA) was “no binding”. The binding [2] was “binds”, the binding [3] was “binds” and the binding [5] was “binds”. The binding [4] was “binds”.
With “HA-RIT1 p.M90V (from UniProt Q92963-1 1-219)” the binding (GST-PAK[CRIB]) was “binds”, the binding [2] was “binds” and the binding [3] was “binds”. For the same substance, the binding [4] was “binds”.
For “HA-tagged RIT1 p.A57G (Flp-In 293 stable cell line) (from UniProt Q92963-1 1-219)”, the binding [1] was “binds”.
“HA-RIT1 p.A57G (from UniProt Q92963-1 1-219)” was tested, and the binding (GST-PAK[CRIB]) was “binds”, the binding [3] was “binds” and the binding [4] was “binds”.
In the case of “HA-RIT1 p.K23N (from UniProt Q92963-1 1-219)”, the binding (GST-PAK[CRIB]) is reported as “binds”, the binding [3] is reported as “binds” and the binding [4] is reported as “binds”.
With “HA-RIT1 p.G31R (from UniProt Q92963-1 1-219)” the binding (GST-PAK[CRIB]) was “binds”, the binding [3] was “binds” and the binding [4] was “binds”.
For “endogenous CDC42 (HEK293T) (from UniProt P60953 1-191)”, the binding (GFP-PAK4) was “binds”.
For “HA-RIT1 p.F82L (from UniProt Q92963-1 1-219)”, the binding (GST-PAK[CRIB]) was “binds”, the binding [2] was “binds” and the binding [3] was “binds”. For the same substance, the binding [4] was “binds”.
